Assay results taken from patent US20160046678A1 (ZYNGENIA, published 2016).
These are yes or no findings as the source states them, for the method shown. Some binding calls cover weakened binding; strength is not graded here.

biological target: T1, Angiopoietin-2 (Ang2) (human, UniProt O15123 19-496, biotin label in Examples 22-24); assay: Example 48, method not detailed
T1 construct: also called rhAng2; recombinant Ang2
T1 sequence (looked up): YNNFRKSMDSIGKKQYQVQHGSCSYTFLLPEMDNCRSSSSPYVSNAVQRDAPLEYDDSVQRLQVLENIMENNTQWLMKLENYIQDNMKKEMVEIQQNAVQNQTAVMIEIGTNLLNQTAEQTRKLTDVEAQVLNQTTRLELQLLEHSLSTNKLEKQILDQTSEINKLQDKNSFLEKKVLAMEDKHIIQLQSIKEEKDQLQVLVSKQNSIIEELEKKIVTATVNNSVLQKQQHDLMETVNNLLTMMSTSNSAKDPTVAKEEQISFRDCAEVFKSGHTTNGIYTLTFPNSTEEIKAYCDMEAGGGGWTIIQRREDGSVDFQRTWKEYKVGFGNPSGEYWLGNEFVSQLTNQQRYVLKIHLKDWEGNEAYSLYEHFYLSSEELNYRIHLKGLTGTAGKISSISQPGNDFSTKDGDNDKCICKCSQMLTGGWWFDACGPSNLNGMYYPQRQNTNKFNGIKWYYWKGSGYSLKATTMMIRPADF

Binder | binding
KCPDLWPQCY [ANG38] | binds
YCWVIAKSCVGQAGQGGGGGGSICRHYVWRCE [ANG40] | binds
LCWNHWWMCD [ANG41] | binds
MCTWQFMVCPGQAGQGGGSGGSYCWEYVYRCD [ANG42] | binds
MCWNHWWMCE [ANG43] | binds
HCIFNFPACI [ANG46] | binds
LCFNHWWMCP [ANG47] | binds
MCIYWKEPWCY [ANG49] | binds
WCDHTEAWPECF [ANG50] | binds
ECYWYPNPMWCY [ANG51] | binds
HCPWGTTMNCV [ANG52] | binds
ECTDYPEWRYCQ [ANG54] | binds
ECFFFPNPWHCY [ANG55] | binds
PCAWFPNPSFCY [ANG56] | binds
MCPWWYDHLHCY [ANG58] | binds
MCPIWYDHQWCH [ANG59] | binds
ECWWYYNHFWCH [ANG61] | binds
ECAWFPNPWCCY [ANG62] | binds
GCWHDGFMCF [ANG63] | binds
WCDHWIVWPECW [ANG64] | binds
QCNDYPNWRYCF [ANG65] | binds
PCAWYPNPEFCY [ANG66] | binds
LQYEEFYDHV [ANG67] | binds
QCPYRINHQRCS [ANG68] | binds
DCVWFPNPDWCY [ANG69] | binds
FCALFPYMFPCE [ANG70] | binds
DGSPCAWFPNPSFCY [ANG71] | binds

Binder | binding
VCPWWYDHWLCS [ANG72] | binds
ECDGWEYHYFCW [ANG73] | binds
YCPLCQYHYGCF [ANG74] | binds
SCWWYPNPQWCY [ANG75] | binds
ECYFLVNMEWCQ [ANG76] | binds
TCWFWELEFFCI [ANG77] | binds
KCYWFPNPIECY [ANG78] | binds
DCAWFPNPAWCH [ANG79] | binds
HCPYWYDHELCH [ANG80] | binds
YCPQWYDHWLCT [ANG81] | binds
NCWEYPNPAWCY [ANG82] | binds
ECDGWEYHYVCW [ANG83] | binds
ECYWYPNPWFCY [ANG84] | binds
DCVDYPGWEYCV [ANG85] | binds
ECYMLHACYDEGH [ANG86] | binds
WCDRGTYVMFCD [ANG87] | binds
TCPVWWDDYWCG [ANG88] | binds
WCDYGTYVVQCE [ANG89] | binds
HCYWHPSPSWCY [ANG90] | binds
QCYWFPNPLECY [ANG91] | binds
QCKWFPNPKECY [ANG93] | binds
PCPYYFNRQHCV [ANG94] | binds
ICYVYGLEEWCI [ANG95] | binds
HCPLWYDHYFCA [ANG98] | binds
ACAWYPNPVECY [ANG101] | binds
ECAIYPNPQWCY [ANG102] | binds
